## Results of single-concentration screens

Measurements from “University of Dundee, Small-Polar-MMV Screening Library” (2021), ChEMBL document CHEMBL3988442.

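Whole-parasite assay of Trypanosoma brucei over 72 hours; the read-out is not stated. Compounds at 10 µM. The record gives no direction; compounds that gave an IC50 in retests scored well above the rest, so higher reads as stronger inhibition. Values scatter widely below zero; nearly all retest evidence comes from the higher of the two concentrations used. Of about 2,700 compounds tested this way, about 14 (0.51%) reached 50% or more in at least one test.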

The filed quantity is “Percent Effect” (%). How 0% and 100% were set is not recorded. Most values in the screen are low, and negative values occur. Compounds were drawn at random from those tested, without regard to their results.

Compound,percent effect
Cc1cnc(CN(C)C2CCN(Cc3nnc(C4CC4)o3)C2)o1 (configuration not stated),-39.33
O=C(NCCNC(=O)c1scnc1Cl)c1cccs1,-11.36
Cc1cc(C)n(CC2CCCCN2C(=O)c2ccsc2)n1 (configuration not stated),-11.13
Cc1cnn(CC2CCCN2C(=O)c2csc(-c3nnc[nH]3)n2)c1 (configuration not stated),-51.64
CC(=O)N1CCN(CC(C)(O)c2cccc(C(F)(F)F)c2)CC1 (configuration not stated),-23.86
COC(=O)C(NC(=O)CC(C)C)c1cc(F)ccc1F (configuration not stated),-37.75
Cc1cnc(CN(C)C2CCN(Cc3nccn3C)C2)o1 (configuration not stated),-23.18
Cc1oc(C)c(C(=O)N2CCCN(c3nccs3)CC2)c1C,-66.48
CS(=O)(=O)CCN1CCCC1c1noc(C2CC2)n1 (configuration not stated),-45.89
Cc1nnc(NC(=O)CN2CCc3nn(C(C)C)c(=O)cc3C2)s1,-19.23
CCOC(=O)c1sc2ccsc2c1CNC(=O)CCOC,6.026
Cc1ccc(CNC(=O)NCCCO)cc1,-34.05
O=C(CN1CCN(C(=O)c2sccc2C2CC2)CC1)NC1CC1,-47.98
CCN(Cc1cccc2c1OCO2)C(=O)NCCOC,-101.5
CC(C)CCN(C(=O)c1ccc(-n2ncc(C#N)c2N)cc1)C1CC1,-37.11
CC(C)(C)c1n[nH]c(C2CN(CCc3cccs3)CCO2)n1 (configuration not stated),-41.42
CN(Cc1ccco1)C(=O)CN1CCOC(Cn2cncn2)C1 (configuration not stated),-45.8
Cc1cnn(CC2CCCN2C(=O)c2nccnc2N)c1 (configuration not stated),-66.51
O=C(CS(=O)(=O)Cc1cc(Cl)c2c(c1)OCCCO2)NCC1CC1,-10.36
Cc1ccoc1-c1nnc(CN2CCn3c(nnc3C(C)C)C2)o1,-4.068
CC(C)c1nc(CN(C)C2CCN(Cc3nnc(C4CC4)o3)C2)no1 (configuration not stated),-35.1
Cc1ncsc1CNc1cc(N2CCCC2CO)ncn1 (configuration not stated),-17.92
Cc1nn(C)c(N2CCOCC2)c1CNCc1ccc(CO)c(F)c1,-65.13
Cc1ccc(CN(C)C(=O)CN2CCOC(Cn3cccn3)C2)o1 (configuration not stated),-52.6
CCc1ccsc1C(=O)NCCn1nc2ccccn2c1=O,-35.47
COc1c(C2CCCN2C(=O)c2c(C)noc2C(C)C)c(C)nn1C (configuration not stated),-53.48
O=C(c1ccc2c(c1)OCCCO2)N1CCCC(n2ccnc2)C1 (configuration not stated),4.916
Cc1ccc(NC2CCN(C(=O)c3ccc(C)o3)CC2)nn1,-72.04
Nc1cc2c(nn1)CCN(C(=O)CC1CCCCC1)C2,-3.391

Some entries from above, unchanged:

Cc1cc(C)n(CC2CCCCN2C(=O)c2ccsc2)n1 (configuration not stated) read -11.13%.
CCOC(=O)c1sc2ccsc2c1CNC(=O)CCOC read 6.026%.
Cc1ccc(NC2CCN(C(=O)c3ccc(C)o3)CC2)nn1 read -72.04%.